{"source": "PubChem BioAssay AID1159584, Peter MacCallum Cancer Centre | 2016", "test": "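Genes that CDH1-null MCF10A cells selectively depend on to survive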 (primary screen)", "cells": "human MCF10A breast epithelial cells, parental and CDH1-null", "reagent": "siRNA against human genes", "read-out": "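Cell viability by CellTiter-Glo ATP luminescence, each line scaled to the mean of mock wells across plates, then CDH1-null over parental ratio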", "reading the numbers": "CDH1-null / parental viability ratio: higher = CDH1-null cells survive relatively better than parental", "note": "In all, the deposit lists about 18,000 reagents; shown is a random part of them. Not all columns of the deposit are shown. Not given: the amount of reagent, the time to read-out."}
{"target":"AAR2 (AAR2 splicing factor)","CDH1-null / parental viability ratio":0.89}
{"target":"OR4C12 (olfactory receptor family 4 subfamily C member 12)","CDH1-null / parental viability ratio":0.92}
{"target":"IL17F (interleukin 17F)","CDH1-null / parental viability ratio":1.24}
{"target":"NLRP5 (NLR family pyrin domain containing 5)","CDH1-null / parental viability ratio":0.59}
{"target":"COLEC10 (collectin subfamily member 10)","CDH1-null / parental viability ratio":0.84}
{"target":"WNT9B (Wnt family member 9B)","CDH1-null / parental viability ratio":0.49}
{"target":"OR2T5 (olfactory receptor family 2 subfamily T member 5)","CDH1-null / parental viability ratio":1.04}
{"target":"MYO6 (myosin VI)","CDH1-null / parental viability ratio":0.88}
{"target":"SLAMF9 (SLAM family member 9)","CDH1-null / parental viability ratio":1.08}
{"target":"EIF2AK2 (eukaryotic translation initiation factor 2 alpha kinase 2)","CDH1-null / parental viability ratio":1.15}
{"target":"OR1L1 (olfactory receptor family 1 subfamily L member 1)","CDH1-null / parental viability ratio":0.82}
{"target":"PLEKHO2 (pleckstrin homology domain containing O2)","CDH1-null / parental viability ratio":0.93}
{"target":"FBXO25 (F-box protein 25)","CDH1-null / parental viability ratio":1.14}
{"target":"EZH2 (enhancer of zeste 2 polycomb repressive complex 2 subunit)","CDH1-null / parental viability ratio":0.84}

Sorted by “CDH1-null / parental viability ratio” (descending): some entries from above
{"target":"IL17F (interleukin 17F)","CDH1-null / parental viability ratio":1.24}
{"target":"OR4C12 (olfactory receptor family 4 subfamily C member 12)","CDH1-null / parental viability ratio":0.92}
